# This is one part of the list.
# Tested on: T1, CTL2-GFP (C. trachomatis L2/434/Bu, GFP-expressing)
# T1 construct: L2/434/Bu, GFP-expressing
# Parameters: species or system HeLa; Intracellular C. trachomatis growth in HeLa cells, bulk GFP fluorescence relative to DMSO
# Conditions: bulk GFP, single well; 28.5 h, 10 µM; inhibitor
row,SMILES,% of control remaining [%]
1,CC(O)CNCCCOc1ccccc1-c1ccccc1 (stereo not drawn) [CBK268633G],176.046
2,Oc1cc(C(F)(F)F)nc(NCc2ccc3ccccc3c2)n1 [CBK003459],91.1516
3,O=C(c1ccc2[nH]c(=O)[nH]c2c1)N1CCC(Cn2cncn2)(C2CCCCC2)CC1 [CBK136824],121.917
4,CC(C)(C)c1nc(-c2ccccc2)c2ccccn12 [CBK149256],98.6159
5,O=c1[nH]c(SCc2n[nH]c(=S)n2-c2ccccc2)nc2sc3c(c12)CCCC3 [CBK300538],92.6676
6,COc1cccc(-c2nnnn2[C@H]2CO[C@H]3[C@@H]2OC[C@@H]3NC(=O)c2ccc(C)cc2)c1 [CBK289512],105.129
7,COc1cccc(-c2nc(-c3ccc4[nH]c(=O)[nH]c4c3)cs2)c1OC [CBK298271],137.286
8,Cc1cc(C)nc(N2CCN(C(=O)CCC(=O)NCc3cccc(C(F)(F)F)c3)CC2)n1 [CBK022261],144.588
9,O=C(O)CC1COCCN1Cc1ccc(Cn2cccn2)cc1 (stereo not drawn) [CBK306827],146.044
10,CCC(C(=O)N1CCC(C(=O)c2cccnc2)CC1)c1ccccc1 (stereo not drawn) [CBK283525],116.822
11,CC(=O)N1c2ccc(-c3cc4ccccn4c3)cc2CC1C (stereo not drawn) [CBK285254],138.779
12,Oc1ccc(SCCCCN2CCCCC2)cc1 [CBK033676],92.9606
13,CC(=O)N1CCC(c2cc(-c3cccc(F)c3)n(C)n2)CC1 [CBK282097],113.15
14,COc1ccc(-n2ncc(-c3ccc(Br)cc3F)n2)cc1OC [CBK112915],115.093
15,OCc1ccccc1-c1cnc(N2CCOCC2)c2nccn12 [CBK091265],107.804
16,COC(=O)C[C@@H](C)NC(=O)[C@](OC)(c1ccccc1)C(F)(F)F [CBK017864],115.119
17,NC1=C(c2ccccc2)C(=O)CN1NC(=O)COc1ccccc1-c1ccccc1 [CBK269258],98.1563
18,CN1CCN(C(=O)c2ccccc2NC(=O)c2ccc(C(C)(C)C)cc2)CC1 [CBK270054],153.797
19,Cc1ccc(-n2sc(=O)n(CCc3ccccc3)c2=O)cc1 [CBK113496],77.4223
20,Cc1nc(C)n(CC2CN(Cc3cn4ccccc4n3)CCO2)n1 (stereo not drawn) [CBK303999],148.488
21,O=C(CN1CCCC1c1cccs1)Nc1cccc(C(=O)NC2CC2)c1 (stereo not drawn) [CBK305895],76.3591
22,CCN(CC(C)C#N)C(=O)c1cc2ccccc2oc1=O (stereo not drawn) [CBK305992],130.945
23,Cc1nnc(N2CCN(Cc3sccc3Cl)CC2)nc1C [CBK304075],129.774
24,O=C(O)COc1ccccc1/C=N/n1c(S)nnc1-c1ccc(Cl)cc1Cl [CBK264418],128.818
25,Cc1csc(C2CN(Cc3cn(C)c(=O)n(C)c3=O)CCO2)n1 (stereo not drawn) [CBK305475],104.176
26,CC(=O)Cn1c(CN2CCOCC2)nc2c1c(=O)n(C)c(=O)n2C [CBK269508],122.991

# Three compounds from above, sorted by heavy-atom count, falling.
row,SMILES,% of control remaining [%]
17,NC1=C(c2ccccc2)C(=O)CN1NC(=O)COc1ccccc1-c1ccccc1 [CBK269258],98.1563
24,O=C(O)COc1ccccc1/C=N/n1c(S)nnc1-c1ccc(Cl)cc1Cl [CBK264418],128.818
11,CC(=O)N1c2ccc(-c3cc4ccccn4c3)cc2CC1C (stereo not drawn) [CBK285254],138.779

# (list continues)

row,SMILES,% of control remaining [%]
1,CN1CCN(c2nc(Nc3ccc(Cl)cc3)nc(Oc3ccccc3)n2)CC1 [CBK004778],82.5563
2,O=C(c1ccccc1)c1ccc2[nH]c(-c3ccc(NC(=O)c4ccccc4Cl)cc3)nc2c1 [CBK262706],82.4346
3,OC1(c2cccnc2F)CCN(Cc2ccccc2F)CC1 [CBK284372],118.333
4,O=C(NCC1(c2ccccc2)CCOCC1)c1ccno1 [CBK067408],106.217
5,CCN(CC)C(=O)C1C2CCC3(CC(=O)c4ccccc4O3)C21 (stereo not drawn) [CBK284923],59.7605
6,C=C(C)Cn1c(SCC(=O)O)nnc1-c1ccc([N+](=O)[O-])cc1 [CBK263159],100
7,O=C(O)c1ccccc1NC(=S)NC(=O)c1ccccc1[N+](=O)[O-] [CBK264963],119.383
8,CS(=O)(=O)N(Cc1ccccc1)c1ccc(C(=O)Nc2ccc3c(c2)OCO3)cc1 [CBK033562],110.992
9,Cn1c(=O)[nH]c(=O)c2[nH]c(CN3CCN(Cc4ccccc4)CC3)nc21 [CBK269592],147.959
10,O=C1CC2(CCN(S(=O)(=O)c3ccc(F)cc3)CC2)CN1 [CBK283353],115.457
11,COc1cc(C2C(C(=O)c3ccc(C)o3)=C(O)C(=O)N2Cc2cccnc2)cc(OC)c1OC (stereo not drawn) [CBK264933],97.2363
12,Cc1noc(C)c1C(=O)N1CCCC(c2nc(C)n3ccsc23)C1 (stereo not drawn) [CBK285211],107.165
13,CCCc1onc(S(=O)(=O)c2ccc(C)cc2)c1NC [CBK020322],158.057
14,O=C(c1cc2c(s1)CCC2)N1CCn2c(nnc2C2CC2)C1 [CBK283770],119.935
15,CCc1nnc(SCC(=O)Nc2cc(OC)ccc2OC)[nH]1 [CBK270167],110.268
16,c1cncc(-c2noc(-c3cc(C4CC4)[nH]n3)n2)c1 [CBK287973],128.617
17,NS(=O)(=O)c1ccc(Cn2c(=O)[nH]c3ncc(-c4ccco4)nc32)cc1 [CBK064948],106.43
18,Cc1c(C)c2c(O)n(-c3ccccc3)nc2[nH]c1=O [CBK287891],115.252
19,COc1ccc(Oc2cncc(OC3CCN(CC4CCCCC4)C3)n2)cc1OC (stereo not drawn) [CBK084413],100.527
20,Cc1cc(C)cc(N(C(C)C(=O)N2CCN(Cc3ccc4c(c3)OCO4)CC2)S(C)(=O)=O)c1 (stereo not drawn) [CBK269060],114.316
21,CCOc1ccc(S(=O)(=O)N2CCN(Cc3cc(F)c(F)c(F)c3)CC2)c2cccnc12 [CBK062795],63.5955
22,N[C@H]1C[C@H]2C(=O)NC[C@@H](CCC(=O)NCc3cccs3)N2C1 [CBK289005],144.09
23,CC(Oc1cc(Cl)ccc1Cl)c1nnc(S)n1C (stereo not drawn) [CBK288376],112.652
24,CC(Oc1cccc2ccccc12)C(=O)NN (stereo not drawn) [CBK261209],101.962
25,CCn1c(Cc2c(C)[nH]c3ccccc23)nnc1SCC(=O)NC12CC3CC(CC(C3)C1)C2 [CBK267529],115.193
26,CCN(CC)CCSc1nc2sc3c(c2c(=O)n1-c1ccc(OC)cc1)CCCC3 [CBK263308],127.59

row,SMILES,% of control remaining [%]
1,CC1(C)CC(=O)C=C(C(=O)Nc2ccccc2N2CCCNCC2)O1 [CBK038935T],67.9152
2,C=CCNC(=S)Nc1sc2c(c1C(=O)OCC)CC(C)CC2 (stereo not drawn) [CBK268778],158.752
3,Nc1nc(SCCc2ccccc2)nc2sc3c(c12)CCCC3 [CBK263445],100
4,Cc1ccc2nc(NCCC(=O)O)nc(-c3ccccc3)c2c1 [CBK266537],147.415
5,CN(C)c1cccc(-c2ccc(Nc3ccc(N4CCOCC4)cc3)nc2)c1 [CBK037735],157.357
6,N#CCSc1nc(-c2cccnc2)ccc1C(=O)O [CBK269387],96.5943
7,CC(C)(C)OC(=O)N1CCC(Sc2ccc(-c3ccco3)cc2)CC1 [CBK122552],112.274
8,O=C(CSc1nnc(CN2CCOCC2)n1-c1ccc(Cl)cc1)N1CCN(c2ccccc2)CC1 [CBK269088],134.013
9,CC(Sc1nc(N)cc(=O)[nH]1)C(=O)Nc1ccc(S(N)(=O)=O)cc1 (stereo not drawn) [CBK266191],143.007
10,Cc1ccc(SC(C)C(=O)Nn2cnnc2)cc1 (stereo not drawn) [CBK268570],151.067
11,COc1cc(C(CC(C)NC(C)(C)C)c2ccccc2)ccc1OCc1ccccc1 (stereo not drawn) [CBK017901],111.043
12,CCn1cc(CN(CC(C)C)C(=O)c2c(C)nc3ccccn23)cn1 [CBK306862],118.158
13,Cc1cc(-c2cn(C)nc2C2CCCCN2C(=O)C2CCCC2)on1 (stereo not drawn) [CBK283404],165.333
14,Cc1ccc(S(=O)(=O)NCCOc2ccc(Cl)cc2)cc1[N+](=O)[O-] [CBK263268],102.172
15,CCN(CC)S(=O)(=O)c1c(C)[nH]c(=O)[nH]c1=O [CBK018721],100.322
16,COc1ccc(-c2cc(C(=O)NCCc3ccccn3)cnc2-c2cccc(C)c2)cc1 [CBK036730],111.64
17,COc1ccc(-c2nc(NS(C)(=O)=O)cc3cccnc23)cc1C [CBK085677],100
18,CC(=O)Nc1ccc(CCOc2nccnc2/C=C/c2ccccc2)cc1 [CBK106880],163.373
19,CCOC(=O)c1cnc(SC(C)C(=O)N2CCc3ccccc32)nc1N (stereo not drawn) [CBK305007],125.724
20,Cc1ccc(C(=O)O)cc1N1C(=O)c2ccc(S(=O)(=O)c3ccc(C(=O)O)cc3)cc2C1=O [CBK262747],114.358
21,CC(=O)Nc1cccc(NC(=O)c2cccc(Cn3cc(Cl)cn3)c2)c1 [CBK265899],122.906
22,Cc1nc2nc(SCc3cc(=O)n4ccccc4n3)nn2c(C)c1Cc1ccccc1 [CBK294460],102.355
23,COc1cccc(CN2CCC(Cc3ccccc3-c3ccc(C)cc3C)(C(=O)O)CC2)c1 [CBK286420],136.6
24,COc1cc(OC)cc(-c2nnc(SCc3cccc(C(=O)O)c3)[nH]2)c1 [CBK268736],95.3908
25,O=C(COc1ccc2c3c(c(=O)oc2c1)CCC3)Nc1ccc(S(=O)(=O)N2CCOCC2)cc1 [CBK265640],100
26,O=C(Nc1cccc(I)c1)c1ccc(Oc2ccc(C(=O)Nc3cccc(I)c3)cc2)cc1 [CBK261201],110
